# Results deposited as PubChem BioAssay AID1259424 (University of Nebraska Medical Center, 2018)
# Assay: 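Seek colon cancer survival genes behaving like KSR1, using a six-gene signature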 (primary screen)
# Cells: human HCT116 colon cancer cells
# Reagent: siRNA pool against human genes, 50 nM
# Read-out: 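Log2 levels of six mRNAs (branched-DNA multiplex), adjusted by two reference genes and the non-targeting median, then scored against the average KSR1 knockdown pattern as Pearson r and euclidean distance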
# Direction: mean correlation with KSR1 profile and KSR1 correlation: higher = expression change more like KSR1 knockdown; mean distance from KSR1 profile: higher = expression change less like KSR1 knockdown
# The whole screen tested about 14,000 reagents; shown is a part drawn at random. 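Higher correlation or smaller distance means closer resemblance to KSR1 loss; control wells, including KSR1 knockdowns, recur on many plates.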 Not all columns of the deposit are shown. The record does not give: the time to read-out.
gene knocked down,mean correlation with KSR1 profile,mean distance from KSR1 profile,"KSR1 correlation, replicate 1","KSR1 correlation, replicate 2"
ZFYVE16 (GeneID 9765),-0.311,1.57,-0.613,-0.0684
GUK1 (GeneID 2987),0.424,1.34,0.0287,0.123
FILIP1L (GeneID 11259),0.0297,1.6,0.115,-0.155
THADA (GeneID 63892),-0.246,1.46,-0.372,-0.37
CNFN (GeneID 84518),0.419,5.69,0.39,0.599
LGI2 (GeneID 55203),-0.105,3.91,0.165,-0.116
ERO1A (GeneID 30001),0.0476,1.11,0.128,-0.197
SYNGR4 (GeneID 23546),0.0486,2.93,0.128,-0.187
GBE1 (GeneID 2632),-0.29,2.26,-0.297,-0.646
RPL34 (GeneID 6164),-0.209,1.96,-0.46,-0.259
MIF (GeneID 4282),-0.576,2.17,-0.347,-0.763
CIB2 (GeneID 10518),-0.257,2.24,0.179,-0.353
EPM2AIP1 (GeneID 9852),-0.244,2.4,-0.0442,-0.553
CEP85 (GeneID 64793),-0.152,1.74,-0.163,-0.488
PPOX (GeneID 5498),0.608,2.07,0.546,0.645
ATP13A1 (GeneID 57130),-0.367,2.61,-0.411,-0.268
CATSPERB (GeneID 79820),0.362,1.79,0.447,0.39
DHTKD1 (GeneID 55526),-0.653,2.5,-0.402,-0.659
PCDHB3 (GeneID 56132),0.522,1.28,0.29,0.494
PDPR (GeneID 55066),-0.264,4.38,-0.511,0.129
CACNA2D3 (GeneID 55799),0.626,1.57,0.467,0.867
RHOJ (GeneID 57381),-0.803,3.78,-0.792,-0.793
SNF8 (GeneID 11267),-0.745,1.47,-0.553,-0.858
E2F6 (GeneID 1876),0.199,1.43,0.238,0.285
CLN6 (GeneID 54982),-0.355,2.27,-0.401,-0.37
CCSER2 (GeneID 54462),0.0888,1.99,-0.208,0.251
AVIL (GeneID 10677),0.241,1.33,0.396,-0.106

Targets listed so far whose gene name starts with C or c:
gene knocked down,mean correlation with KSR1 profile,mean distance from KSR1 profile,"KSR1 correlation, replicate 1","KSR1 correlation, replicate 2"
CNFN (GeneID 84518),0.419,5.69,0.39,0.599
CIB2 (GeneID 10518),-0.257,2.24,0.179,-0.353
CEP85 (GeneID 64793),-0.152,1.74,-0.163,-0.488
CATSPERB (GeneID 79820),0.362,1.79,0.447,0.39
CACNA2D3 (GeneID 55799),0.626,1.57,0.467,0.867
CLN6 (GeneID 54982),-0.355,2.27,-0.401,-0.37
CCSER2 (GeneID 54462),0.0888,1.99,-0.208,0.251

Next entries follow.
gene knocked down,mean correlation with KSR1 profile,mean distance from KSR1 profile,"KSR1 correlation, replicate 1","KSR1 correlation, replicate 2"
DESI1 (GeneID 27351),-0.0316,1.47,-0.183,-0.135
DNAJC9 (GeneID 23234),0.825,1.67,0.321,0.257
SEC31A (GeneID 22872),-0.226,1.48,-0.0409,-0.202
CCM2 (GeneID 83605),-0.0101,2.25,0.164,-0.864
AFTPH (GeneID 54812),0.745,0.891,0.761,0.734
FFAR1 (GeneID 2864),0.103,2.87,0.0738,0.201
ERLIN1 (GeneID 10613),0.759,1.01,0.777,0.506
CFAP46 (GeneID 54777),-0.302,1.61,-0.0704,-0.388
FOXL2 (GeneID 668),-0.141,2.84,-0.12,-0.303
NFKB2 (GeneID 4791),-0.16,2.05,0.0364,0.19
LPIN2 (GeneID 9663),0.577,0.761,0.316,0.644
MRPS11 (GeneID 64963),0.127,1.53,0.0934,0.0597
UBASH3B (GeneID 84959),0.964,2.71,0.884,0.944
LOC84843 (retired record) (GeneID 84843),0.357,2.07,-0.0153,0.233
VN1R4 (GeneID 317703),0.624,1.23,0.705,0.767
PCGF5 (GeneID 84333),0.234,2.69,0.0839,0.156
EIF3F (GeneID 8665),-0.0122,4.68,-0.0147,0.061
STAMBP (GeneID 10617),0.0572,2.21,0.309,0.00144
H3C1 (GeneID 8350),-0.577,3.31,-0.378,-0.646
PKN2 (GeneID 5586),0.0157,2.05,0.619,-0.0746
KDM7A (GeneID 80853),0.548,1.82,0.251,0.532
MOSPD1 (GeneID 56180),-0.666,2.74,-0.656,-0.545
ZCCHC8 (GeneID 55596),-0.334,1.23,-0.496,-0.0516
